These results are taken from publication PMC2853562.

The target in assay [1] is T1, GST-GADD45B (UniProt P22339).
T1 sequence: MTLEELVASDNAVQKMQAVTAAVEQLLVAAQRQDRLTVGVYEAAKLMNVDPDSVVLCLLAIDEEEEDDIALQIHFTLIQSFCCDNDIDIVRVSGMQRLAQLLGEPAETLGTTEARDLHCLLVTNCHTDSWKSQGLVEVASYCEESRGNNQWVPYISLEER
Put plainly: pull-down; purified GST-GADD45B incubated with in vitro translated [35S]methionine-labeled MKK7 and/or CAR; bound proteins detected by autoradiography after SDS-PAGE; only the target purified.

Assay [2] addresses T2, GST-CAR (UniProt O35627).
T2 sequence: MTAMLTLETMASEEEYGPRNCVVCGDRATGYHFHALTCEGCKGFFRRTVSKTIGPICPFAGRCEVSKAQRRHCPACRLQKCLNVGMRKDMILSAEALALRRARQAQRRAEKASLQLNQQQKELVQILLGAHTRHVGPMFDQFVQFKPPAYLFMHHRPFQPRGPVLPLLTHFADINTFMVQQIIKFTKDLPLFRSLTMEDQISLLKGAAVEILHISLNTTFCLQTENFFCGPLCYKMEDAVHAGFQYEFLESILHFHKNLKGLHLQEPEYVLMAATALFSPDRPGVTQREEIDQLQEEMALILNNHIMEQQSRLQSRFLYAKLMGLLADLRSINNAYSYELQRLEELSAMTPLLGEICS
In words: pull-down; purified GST-CAR and GST-CAR mutants incubated with purified GADD45B (GST removed by thrombin); Western blot with anti-GADD45B (N-19) antibody; both purified. For orientation: Immunoblotting shows a protein as a band on a membrane.

No constants are given. Whether binding was seen depends on the method and setting. For some assays here: Binding seen in cells or lysates may run through a third protein. Some results given as binding are weak or reduced against the parent protein; the word gives no strength. Tags and fused reporters may be left off the sequences shown.

B1: in vitro translated CAR (receptor, UniProt O35627 1-358)
chain: MTAMLTLETMASEEEYGPRNCVVCGDRATGYHFHALTCEGCKGFFRRTVSKTIGPICPFAGRCEVSKAQRRHCPACRLQKCLNVGMRKDMILSAEALALRRARQAQRRAEKASLQLNQQQKELVQILLGAHTRHVGPMFDQFVQFKPPAYLFMHHRPFQPRGPVLPLLTHFADINTFMVQQIIKFTKDLPLFRSLTMEDQISLLKGAAVEILHISLNTTFCLQTENFFCGPLCYKMEDAVHAGFQYEFLESILHFHKNLKGLHLQEPEYVLMAATALFSPDRPGVTQREEIDQLQEEMALILNNHIMEQQSRLQSRFLYAKLMGLLADLRSINNAYSYELQRLEELSAMTPLLGEICS
modifications: labeled with [35S] methionine
Turning to B1, the binding entry in assay [1] is “binds”.

B2: purified GADD45B protein (protein, UniProt P22339 1-160)
chain: MTLEELVASDNAVQKMQAVTAAVEQLLVAAQRQDRLTVGVYEAAKLMNVDPDSVVLCLLAIDEEEEDDIALQIHFTLIQSFCCDNDIDIVRVSGMQRLAQLLGEPAETLGTTEARDLHCLLVTNCHTDSWKSQGLVEVASYCEESRGNNQWVPYISLEER
B2: the binding result in assay [2] is reported as “binds”.
